These are yes or no findings as the source states them, for the method shown. Some entries that bind do so weakly or less than the wild type.

Chains of the proteins cited; added tags and fusions are not shown. Lines headed by an entry give the natural chain unless they say otherwise; changes in a name come on top. Residues count along the entry.
UniProt Q08460: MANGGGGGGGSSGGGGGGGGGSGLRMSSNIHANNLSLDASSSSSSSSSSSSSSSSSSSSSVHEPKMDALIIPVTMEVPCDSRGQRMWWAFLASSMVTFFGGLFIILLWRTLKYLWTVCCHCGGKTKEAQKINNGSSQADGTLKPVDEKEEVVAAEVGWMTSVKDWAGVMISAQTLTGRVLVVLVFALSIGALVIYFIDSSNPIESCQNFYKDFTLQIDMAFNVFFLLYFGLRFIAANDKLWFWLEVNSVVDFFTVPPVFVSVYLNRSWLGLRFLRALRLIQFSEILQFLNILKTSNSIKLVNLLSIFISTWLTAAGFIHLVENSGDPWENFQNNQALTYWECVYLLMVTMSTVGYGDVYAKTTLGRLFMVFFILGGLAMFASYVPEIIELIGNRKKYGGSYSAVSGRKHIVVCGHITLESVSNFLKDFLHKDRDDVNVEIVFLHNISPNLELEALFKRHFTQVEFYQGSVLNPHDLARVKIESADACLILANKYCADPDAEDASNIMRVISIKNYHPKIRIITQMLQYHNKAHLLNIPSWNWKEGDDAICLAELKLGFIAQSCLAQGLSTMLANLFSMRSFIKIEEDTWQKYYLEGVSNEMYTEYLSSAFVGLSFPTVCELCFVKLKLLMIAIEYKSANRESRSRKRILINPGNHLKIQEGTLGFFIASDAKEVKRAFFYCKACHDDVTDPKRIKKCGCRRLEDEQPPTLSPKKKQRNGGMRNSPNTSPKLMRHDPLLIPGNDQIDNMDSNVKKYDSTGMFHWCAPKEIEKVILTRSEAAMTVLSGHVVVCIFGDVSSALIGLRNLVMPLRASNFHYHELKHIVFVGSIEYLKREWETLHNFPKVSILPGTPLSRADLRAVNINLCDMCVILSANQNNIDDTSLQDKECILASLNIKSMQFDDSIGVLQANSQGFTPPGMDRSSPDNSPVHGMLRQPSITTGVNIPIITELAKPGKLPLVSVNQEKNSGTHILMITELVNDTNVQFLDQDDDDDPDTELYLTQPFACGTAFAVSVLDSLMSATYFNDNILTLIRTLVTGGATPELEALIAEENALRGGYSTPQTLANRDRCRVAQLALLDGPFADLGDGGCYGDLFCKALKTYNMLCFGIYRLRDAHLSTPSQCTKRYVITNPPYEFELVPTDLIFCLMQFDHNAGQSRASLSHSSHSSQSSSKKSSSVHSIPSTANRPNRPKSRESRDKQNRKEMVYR
UniProt P13487, residues 23-59: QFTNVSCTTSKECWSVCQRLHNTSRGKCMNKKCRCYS

For this assay, the target named is mSlo1/β4 channel (mouse | human) (UniProt Q08460). The assay can be described thus: patch-clamp electrophysiology (time course of current block); outside-out patches of transfected HEK293 cells perfused with 1 μM ChTX; steps to +100 mV, intracellular 10 μM Ca2+; τon and τoff fitted to a first order bimolecular reaction scheme; KD = [ChTX]/((τoff/τon) − 1); only the binder purified. Background: The patch-clamp technique gives a direct electrical read-out from membranes.

With “Charybdotoxin (from UniProt P13487 23-59) (peptide)”, the binding result was “binds weakly”.

The values above are taken from article PMC5854672, “Solution structure of extracellular loop of human β4 subunit of BK channel and its biological implication on ChTX sensitivity” (Scientific Reports, 2018).
